Two molecules from PMC7280298 can be followed below.

Experiment [1] addresses T1, NRP2-9xMyc (NAP1-RELATED PROTEIN 2, C-terminally 9xMyc-tagged) (Arabidopsis) (UniProt Q8LC68).
T1 sequence: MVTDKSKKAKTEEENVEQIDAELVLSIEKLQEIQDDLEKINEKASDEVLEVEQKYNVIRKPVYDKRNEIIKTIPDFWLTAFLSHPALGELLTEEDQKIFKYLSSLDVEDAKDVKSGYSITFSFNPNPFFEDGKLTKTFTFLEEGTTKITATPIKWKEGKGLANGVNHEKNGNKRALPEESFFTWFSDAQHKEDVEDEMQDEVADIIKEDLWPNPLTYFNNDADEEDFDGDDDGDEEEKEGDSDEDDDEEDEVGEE
Nature of the experiment: affinity purification with mass spectrometry; NRP2-9xMyc from young inflorescences held on streptavidin-coupled magnetic beads, 1 h at 4 °C, IP buffer, released by 3C cleavage overnight; three replicates; Columbia plants as negative control.

In experiment [2] the target is T2, NRP2-3xFlag (NAP1-RELATED PROTEIN 2, C-terminally 3xFlag-tagged) (Arabidopsis) (UniProt Q8LC68).
T2 sequence: T1 sequence
Nature of the experiment: affinity purification with mass spectrometry; NRP2-3xFlag from young inflorescences held on FLAG M2 magnetic beads, 4 °C 2 h, IP buffer (50 mM Tris pH 7.6, 150 mM NaCl, 5 mM MgCl2, 10% glycerol, 0.1% NP-40), eluted with 3X FLAG peptides; Columbia plants as negative control.

These are yes or no findings as the source states them, for the method shown. Binding seen in cells or lysates may run through a third protein. A yes stands for co-enrichment or nearness to the bait. Other partners may have been found. Sequences can lack the tags named with a protein.

B1: NAP1-RELATED PROTEIN 1 (NRP1), endogenous (protein, UniProt Q9CA59 1-256)
chain: MVADKSKKSKIEEKGEEENLEQIDAELVLSIEKLQEIQDDLEKINEKASDEVLEVEQKYNVIRKPVYDKRNEVIQSIPGFWMTAFLSHPALGDLLTEEDQKIFKYLNSLEVEDAKDVKSGYSITFHFTSNPFFEDAKLTKTFTFLEEGTTKITATPIKWKEGKGLPNGVNHDDKKGNKRALPEESFFTWFTDAQHKEDAGDEIHDEVADIIKEDLWSNPLTYFNNDADEEDFDGDDDGDEEGEEDDDDEEEEDGEE
With B1, the binding entry in experiment [1] and in experiment [2] was “binds” throughout.

B2: Transcriptional Factor B3 family protein (At4g31620) (protein, UniProt Q8VZQ9 1-492)
chain: MANHPLSSSRSNRPFFVRSLAGHTSNLIIPDEFFTAHLEGKTGLTKLKLTSDASDRIWDVRLNGRRFAGGWDDFSAAHCLRDDDVLVFRLDVKMVFHVTPSGRSFSQIRTSSSSGDYDSDDDDDEAGDDDSDSKNISLKKKSRFEAESSSSEKYCLLGLTASNLRLNRVSFTKHFSRANGLTKRCCMIDLMNLSGESWTLGLRHNKRTGQAFIRGRWRSFCHANELKPGSFYRFKLVRNGTRPLLQLCFKVIPQGNCSNSKANGKANVSEKYSREDGSASTKQNKFLTVTLKHYMIQSGQLRLRRSFVRENGIKEAEEIILVDKNGVEWPSYVSSSKQRREFYMAHGWIRFCEANKLKTGETFTLEFVRGEGTTPMLKFCSEAKIEQEEAPEERGTPLPKRARVSAEVGHSRRTQAPNKSSDDPKILQRKQPLQPCSFSDQAKKVKQSIVNILTGIKRFRSELELKERNLEAALLEIDALGDKVSEINKILK
For the molecule B2, the binding entry in experiment [1] and in experiment [2] was “binds” each time.
